Experimental data reported in patent US20180105585A1.
No constants are given. Whether binding was seen depends on the method and setting.

Biological target: biotinylated-insulin
Assay: SPR (BIAcore T-100), antibody amine-coupled to CM3 chip, analyte at 400 nM

- binding: no binding (tested: 400 nM)
B1: Abet0144-GL IgG1-TM (antibody, V domains shown)
VH: EVQLLESGGGLVQPGGSLRLSCAASGFTFSVYTMWWVRQAPGKGLEWVSVIGSSGGTTVYADSVKGRFTISRDNSKNTLYLQMNSLRAEDTAVYYCAREWMDHSRPYYYYGMDVWGQGTLVTVSS
VL: SYELTQPPSVSVSPGQTASITCSGHNLEDKFASWYQQKPGQSPVLVIYRDDKRPSGIPERFSASNSGHTATLTISGTQAMDEADYYCQAQDSTTRVFGGGTKLTVL
